Measured values taken from the supplement of paper PMC10849652.
The other results are listed elsewhere or left out.

Sequences of proteins named here, by UniProt entry; tags and fusion partners are left off. A change or cut given only in a name is not applied to a line headed by its entry.
UniProt Q9BQP7: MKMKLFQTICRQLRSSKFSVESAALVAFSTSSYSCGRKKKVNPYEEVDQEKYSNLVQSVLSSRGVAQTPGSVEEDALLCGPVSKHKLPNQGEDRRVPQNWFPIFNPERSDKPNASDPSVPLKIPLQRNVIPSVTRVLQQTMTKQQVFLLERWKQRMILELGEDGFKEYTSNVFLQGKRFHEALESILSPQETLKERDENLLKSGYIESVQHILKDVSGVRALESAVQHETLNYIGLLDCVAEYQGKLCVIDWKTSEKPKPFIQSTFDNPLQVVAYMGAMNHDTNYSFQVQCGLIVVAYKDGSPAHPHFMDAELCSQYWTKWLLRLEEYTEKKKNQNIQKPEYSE
UniProt Q9H204: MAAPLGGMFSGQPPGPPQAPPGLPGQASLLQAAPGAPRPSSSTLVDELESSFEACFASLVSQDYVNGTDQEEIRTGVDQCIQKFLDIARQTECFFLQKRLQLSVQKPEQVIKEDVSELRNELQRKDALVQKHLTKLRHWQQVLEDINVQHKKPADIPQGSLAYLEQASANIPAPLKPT
UniProt Q5TF39: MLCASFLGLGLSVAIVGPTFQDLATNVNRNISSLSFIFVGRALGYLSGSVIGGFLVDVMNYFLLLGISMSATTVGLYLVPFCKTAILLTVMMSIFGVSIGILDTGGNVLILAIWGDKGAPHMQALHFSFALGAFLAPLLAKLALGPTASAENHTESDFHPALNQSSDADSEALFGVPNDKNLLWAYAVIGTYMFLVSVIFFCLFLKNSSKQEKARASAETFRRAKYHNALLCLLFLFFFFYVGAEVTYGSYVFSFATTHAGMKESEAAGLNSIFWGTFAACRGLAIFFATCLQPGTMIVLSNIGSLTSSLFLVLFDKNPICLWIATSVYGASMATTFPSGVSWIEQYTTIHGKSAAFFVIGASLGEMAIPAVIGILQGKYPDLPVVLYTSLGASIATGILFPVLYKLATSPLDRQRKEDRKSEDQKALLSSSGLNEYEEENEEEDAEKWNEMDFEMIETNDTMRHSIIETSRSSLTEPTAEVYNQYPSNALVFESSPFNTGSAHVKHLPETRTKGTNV
UniProt Q9UQ53: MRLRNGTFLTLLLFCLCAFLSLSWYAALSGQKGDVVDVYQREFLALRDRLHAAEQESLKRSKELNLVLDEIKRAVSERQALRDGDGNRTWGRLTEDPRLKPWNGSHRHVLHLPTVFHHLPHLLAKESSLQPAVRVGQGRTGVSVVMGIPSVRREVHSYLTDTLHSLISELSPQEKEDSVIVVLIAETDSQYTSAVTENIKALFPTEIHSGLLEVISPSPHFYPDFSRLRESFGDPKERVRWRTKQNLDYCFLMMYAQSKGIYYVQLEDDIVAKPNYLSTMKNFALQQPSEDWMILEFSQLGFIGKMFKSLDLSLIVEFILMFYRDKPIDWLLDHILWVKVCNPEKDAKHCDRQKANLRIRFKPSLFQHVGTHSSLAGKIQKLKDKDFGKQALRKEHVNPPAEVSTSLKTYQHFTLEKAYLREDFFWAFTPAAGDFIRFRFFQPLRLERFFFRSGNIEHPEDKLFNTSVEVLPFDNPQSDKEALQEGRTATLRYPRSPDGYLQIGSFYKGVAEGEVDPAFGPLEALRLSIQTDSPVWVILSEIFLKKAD
UniProt Q96PE7: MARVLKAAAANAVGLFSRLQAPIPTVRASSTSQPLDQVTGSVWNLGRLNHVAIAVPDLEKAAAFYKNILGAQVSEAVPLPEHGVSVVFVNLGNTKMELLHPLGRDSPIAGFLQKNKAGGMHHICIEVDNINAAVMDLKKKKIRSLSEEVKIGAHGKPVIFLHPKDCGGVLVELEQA
UniProt Q6ZNC8: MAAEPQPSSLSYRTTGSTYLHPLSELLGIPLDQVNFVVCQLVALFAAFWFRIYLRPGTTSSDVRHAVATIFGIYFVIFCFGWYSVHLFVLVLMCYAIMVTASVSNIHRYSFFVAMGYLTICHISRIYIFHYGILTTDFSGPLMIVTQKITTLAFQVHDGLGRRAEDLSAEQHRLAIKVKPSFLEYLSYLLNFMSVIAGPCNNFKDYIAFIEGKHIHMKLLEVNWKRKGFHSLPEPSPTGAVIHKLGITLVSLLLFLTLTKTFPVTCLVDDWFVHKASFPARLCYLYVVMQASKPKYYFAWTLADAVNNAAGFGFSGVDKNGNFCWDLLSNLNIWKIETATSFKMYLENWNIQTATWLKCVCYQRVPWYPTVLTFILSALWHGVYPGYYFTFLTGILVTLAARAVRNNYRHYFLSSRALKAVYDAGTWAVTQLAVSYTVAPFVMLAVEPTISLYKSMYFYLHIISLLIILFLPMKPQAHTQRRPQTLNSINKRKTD
UniProt Q86W50: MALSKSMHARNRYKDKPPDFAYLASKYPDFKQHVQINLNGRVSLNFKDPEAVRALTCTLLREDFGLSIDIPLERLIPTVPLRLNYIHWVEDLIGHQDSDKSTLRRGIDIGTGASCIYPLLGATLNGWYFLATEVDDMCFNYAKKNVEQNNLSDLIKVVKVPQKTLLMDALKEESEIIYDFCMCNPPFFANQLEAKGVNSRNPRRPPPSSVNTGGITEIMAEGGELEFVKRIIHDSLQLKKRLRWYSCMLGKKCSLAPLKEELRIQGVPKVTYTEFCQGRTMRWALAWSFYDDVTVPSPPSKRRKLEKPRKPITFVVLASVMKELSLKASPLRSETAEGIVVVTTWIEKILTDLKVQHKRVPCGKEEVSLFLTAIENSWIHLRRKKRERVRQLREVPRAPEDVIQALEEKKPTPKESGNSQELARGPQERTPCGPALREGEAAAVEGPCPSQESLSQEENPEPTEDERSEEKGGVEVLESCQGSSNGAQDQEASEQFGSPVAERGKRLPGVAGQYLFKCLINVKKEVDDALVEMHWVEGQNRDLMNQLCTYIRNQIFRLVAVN
UniProt Q14728: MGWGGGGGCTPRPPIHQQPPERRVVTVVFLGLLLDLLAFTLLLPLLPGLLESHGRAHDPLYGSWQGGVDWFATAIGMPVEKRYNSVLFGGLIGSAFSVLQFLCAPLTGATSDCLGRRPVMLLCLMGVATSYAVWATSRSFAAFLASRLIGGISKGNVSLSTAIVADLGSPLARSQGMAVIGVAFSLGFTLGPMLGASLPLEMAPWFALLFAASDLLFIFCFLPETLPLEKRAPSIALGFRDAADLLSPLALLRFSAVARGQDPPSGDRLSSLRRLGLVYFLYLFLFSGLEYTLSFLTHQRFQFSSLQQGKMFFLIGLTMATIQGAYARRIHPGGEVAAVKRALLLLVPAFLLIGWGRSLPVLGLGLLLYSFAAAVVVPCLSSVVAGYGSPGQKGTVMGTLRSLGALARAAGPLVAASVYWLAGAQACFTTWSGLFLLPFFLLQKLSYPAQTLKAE
UniProt Q9UHV7: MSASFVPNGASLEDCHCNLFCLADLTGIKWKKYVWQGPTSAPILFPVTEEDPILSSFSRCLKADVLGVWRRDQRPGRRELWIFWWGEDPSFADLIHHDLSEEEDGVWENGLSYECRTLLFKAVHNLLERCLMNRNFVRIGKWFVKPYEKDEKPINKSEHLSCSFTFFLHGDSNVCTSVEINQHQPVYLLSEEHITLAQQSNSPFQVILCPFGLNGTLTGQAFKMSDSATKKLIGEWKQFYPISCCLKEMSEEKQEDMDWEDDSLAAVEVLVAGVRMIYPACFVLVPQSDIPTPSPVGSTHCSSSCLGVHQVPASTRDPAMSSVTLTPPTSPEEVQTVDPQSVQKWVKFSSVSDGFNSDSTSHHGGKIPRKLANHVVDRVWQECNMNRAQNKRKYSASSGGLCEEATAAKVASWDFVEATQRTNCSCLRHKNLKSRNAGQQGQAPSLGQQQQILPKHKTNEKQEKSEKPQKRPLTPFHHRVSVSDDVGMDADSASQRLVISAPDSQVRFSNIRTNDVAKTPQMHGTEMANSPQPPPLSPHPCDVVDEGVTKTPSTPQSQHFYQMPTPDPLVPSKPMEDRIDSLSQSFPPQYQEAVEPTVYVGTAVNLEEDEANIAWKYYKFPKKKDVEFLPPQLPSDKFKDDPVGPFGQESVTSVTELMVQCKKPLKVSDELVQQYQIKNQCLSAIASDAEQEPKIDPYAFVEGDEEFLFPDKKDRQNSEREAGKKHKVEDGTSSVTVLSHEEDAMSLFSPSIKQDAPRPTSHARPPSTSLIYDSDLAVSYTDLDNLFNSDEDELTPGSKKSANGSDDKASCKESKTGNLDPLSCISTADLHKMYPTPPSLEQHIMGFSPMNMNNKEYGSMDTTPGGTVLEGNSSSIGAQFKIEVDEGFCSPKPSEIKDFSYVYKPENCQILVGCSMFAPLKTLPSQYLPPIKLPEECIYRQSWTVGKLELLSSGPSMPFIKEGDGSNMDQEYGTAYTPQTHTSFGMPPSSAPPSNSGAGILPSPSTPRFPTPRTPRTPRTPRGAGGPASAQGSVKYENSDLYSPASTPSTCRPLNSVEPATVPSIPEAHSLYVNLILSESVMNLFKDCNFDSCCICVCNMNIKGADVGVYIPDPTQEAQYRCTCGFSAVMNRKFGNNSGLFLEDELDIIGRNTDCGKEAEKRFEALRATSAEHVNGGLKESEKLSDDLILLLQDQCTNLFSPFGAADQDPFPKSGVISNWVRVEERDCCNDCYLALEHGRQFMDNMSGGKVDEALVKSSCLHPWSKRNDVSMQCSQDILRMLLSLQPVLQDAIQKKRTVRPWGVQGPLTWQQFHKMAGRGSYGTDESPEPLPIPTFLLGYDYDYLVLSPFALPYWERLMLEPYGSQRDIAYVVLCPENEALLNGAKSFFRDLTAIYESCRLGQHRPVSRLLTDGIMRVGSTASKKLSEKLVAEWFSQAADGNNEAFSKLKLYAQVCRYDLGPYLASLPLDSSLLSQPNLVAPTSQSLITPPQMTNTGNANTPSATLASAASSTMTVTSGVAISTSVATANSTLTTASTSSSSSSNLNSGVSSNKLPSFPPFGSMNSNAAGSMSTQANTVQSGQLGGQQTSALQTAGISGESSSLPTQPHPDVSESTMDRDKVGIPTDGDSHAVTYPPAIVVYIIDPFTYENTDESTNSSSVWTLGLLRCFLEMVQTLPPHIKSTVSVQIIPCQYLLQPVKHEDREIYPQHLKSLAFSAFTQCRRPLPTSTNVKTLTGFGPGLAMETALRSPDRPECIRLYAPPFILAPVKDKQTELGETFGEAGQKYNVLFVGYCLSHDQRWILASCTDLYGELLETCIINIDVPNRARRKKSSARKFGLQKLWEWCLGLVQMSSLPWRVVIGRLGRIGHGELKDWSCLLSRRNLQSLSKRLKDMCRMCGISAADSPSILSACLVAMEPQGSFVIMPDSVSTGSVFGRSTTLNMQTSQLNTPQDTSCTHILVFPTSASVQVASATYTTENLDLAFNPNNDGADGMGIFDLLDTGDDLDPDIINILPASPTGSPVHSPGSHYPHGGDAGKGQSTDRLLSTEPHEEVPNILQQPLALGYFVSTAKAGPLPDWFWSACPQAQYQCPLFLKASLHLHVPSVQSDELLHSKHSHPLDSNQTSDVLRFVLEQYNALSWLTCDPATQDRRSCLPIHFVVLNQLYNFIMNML
UniProt Q00266: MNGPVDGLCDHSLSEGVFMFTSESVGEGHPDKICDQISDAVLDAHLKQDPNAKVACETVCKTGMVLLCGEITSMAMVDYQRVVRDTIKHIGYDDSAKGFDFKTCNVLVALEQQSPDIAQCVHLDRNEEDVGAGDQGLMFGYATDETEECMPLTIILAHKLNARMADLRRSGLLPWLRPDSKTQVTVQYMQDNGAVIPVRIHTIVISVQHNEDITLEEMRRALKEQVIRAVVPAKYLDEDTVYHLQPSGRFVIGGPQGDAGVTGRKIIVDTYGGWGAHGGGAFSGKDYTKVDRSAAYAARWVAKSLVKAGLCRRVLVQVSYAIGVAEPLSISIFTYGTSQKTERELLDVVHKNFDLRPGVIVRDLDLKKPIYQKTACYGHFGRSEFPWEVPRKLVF
UniProt Q6ZWT7: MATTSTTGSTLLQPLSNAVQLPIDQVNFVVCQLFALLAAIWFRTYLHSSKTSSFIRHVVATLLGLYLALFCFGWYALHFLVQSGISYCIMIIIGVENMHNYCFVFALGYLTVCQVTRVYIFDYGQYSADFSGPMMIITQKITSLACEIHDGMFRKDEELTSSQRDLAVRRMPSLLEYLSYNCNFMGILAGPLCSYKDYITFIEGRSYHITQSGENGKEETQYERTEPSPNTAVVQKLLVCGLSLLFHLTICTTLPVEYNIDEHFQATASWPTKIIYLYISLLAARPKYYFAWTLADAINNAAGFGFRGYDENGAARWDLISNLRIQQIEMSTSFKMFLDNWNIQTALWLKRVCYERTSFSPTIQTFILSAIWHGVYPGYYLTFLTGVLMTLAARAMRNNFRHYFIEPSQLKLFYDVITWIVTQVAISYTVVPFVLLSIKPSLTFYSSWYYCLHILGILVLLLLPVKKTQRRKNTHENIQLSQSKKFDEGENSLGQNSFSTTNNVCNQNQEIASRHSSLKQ
UniProt Q9BTT4: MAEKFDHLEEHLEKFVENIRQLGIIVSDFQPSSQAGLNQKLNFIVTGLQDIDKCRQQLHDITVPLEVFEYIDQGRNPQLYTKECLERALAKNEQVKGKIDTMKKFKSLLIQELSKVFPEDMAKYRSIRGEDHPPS

Columns and labels:
Assay in all cases: log2 fold change, soluble protein after heating vs DMSO (PISA); higher = thermal stabilisation; K562 cells, 10 uM, 30 min; active = over 0.2 and 3.5 SD of the protein, either way, in both replicates (recomputed)
[1] = compound: CN1CCN(CCOc2cc(OC3CCOCC3)c3c(Nc4c(Cl)ccc5c4OCO5)ncnc3c2)CC1 [saracatinib]
In short: (§1)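 K562 cells at 2×10^6 cells/mL were treated for 30 min with 10 μM compound, and aliquots were heated for 3 min over 48°C-58°C before pooling. Extraction used PBS with 0.5% NP-40 at 4°C, and soluble protein was the supernatant after 21,000xg for 90 min, measured by TMTpro 16plex LC-MS/MS with channel sums equalised. Thermal stability values, relative to control samples and from duplicates, are log2 fold changes.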

[2] = compound: CN1CCN(c2nc(C3=C(c4c[nH]c5ccccc45)C(=O)NC3=O)c3ccccc3n2)CC1 [sotrastaurin]
In short: as §1

[3] = compound: CN1CC[C@H](c2c(O)cc(O)c3c(=O)cc(-c4ccccc4Cl)oc23)[C@H](O)C1 [alvocidib]
In short: as §1

[4] = compound: CN1CCc2c(c3ccccc3n2Cc2ccc(C(=O)NO)cc2)C1 [Tubastatin A]
In short: as §1

[5] = compound: CNC(=O)C1=CC=CC=C1NC2=NC(=NC=C2Cl)NC3=C(C=C(C=C3)N4CCOCC4)OC
In short: as §1

[6] = compound: CNC(=O)c1ccc(Nc2ncc(C(F)(F)F)c(NCc3nccnc3N(C)S(C)(=O)=O)n2)cc1 [defactinib]
In short: as §1

[7] = compound: CNCc1ccc(-c2[nH]c3cc(F)cc4c3c2CCNC4=O)cc1 [rucaparib]
In short: as §1

[8] = compound: CNc1nc(-c2ccc3c(N)n[nH]c3c2)cc(N2C[C@@H](C(=O)NC3CCCCC3)CC[C@H]2C)n1
In short: as §1

[9] = compound: COC(=O)N[C@@H](C)CNc1nccc(-c2cn(C(C)C)nc2-c2cc(Cl)cc(NS(C)(=O)=O)c2F)n1 [encorafenib]
In short: as §1

[10] = compound: COC(=O)[C@H](CCSC)NC(=O)C1=C(C=C(C=C1)NC[C@H](CS)N)C2=CC=CC=C2
In short: as §1

[11] = compound: COC1=CC=C(C=C1)CN2C=CC3=C2C=C(C=C3)C(=O)NO
In short: as §1

[12] = compound: CON(C)C(=O)N1N=C(c2cc(F)ccc2F)S[C@@]1(CCCN)c1ccccc1 [filanesib]
In short: as §1

[13] = compound: CO[C@H]1C[C@@H]2CC[C@@H](C)[C@@](O)(O2)C(=O)C(=O)N2CCCC[C@H]2C(=O)O[C@H]([C@H](C)C[C@@H]2CC[C@H](n3cnnn3)[C@H](OC)C2)CC(=O)[C@H](C)/C=C(\C)[C@@H](O)[C@@H](OC)C(=O)[C@H](C)C[C@H](C)/C=C/C=C/C=C/1C [zotarolimus]
In short: as §1

[14] = compound: COc1cc(C(=O)O)ccc1NC(=O)[C@@H]1N[C@@H](CC(C)(C)C)[C@](C#N)(c2ccc(Cl)cc2F)[C@H]1c1cccc(Cl)c1F [idasanutlin]
In short: as §1

[15] = compound: COc1cc(Nc2ncc3c(n2)-c2ccc(Cl)cc2C(c2c(F)cccc2OC)=NC3)ccc1C(=O)O [alisertib]
In short: as §1

[16] = compound: COc1cc2nc(-c3cc(F)ccc3O)nc(N[C@@H]3CNC[C@H]3C(C)(C)O)c2cc1OC
In short: as §1

[17] = compound: COc1cc2ncnc(Nc3ccc(F)c(Cl)c3)c2cc1OCCCN1CCOCC1 [gefitinib]
In short: as §1

[18] = compound: COc1cccc2cc(-c3nc([C@H]4CC[C@H](C(=O)O)CC4)n4ncnc(N)c34)[nH]c12
In short: as §1

[19] = compound: CS(=O)(=O)CCNCc1ccc(-c2ccc3ncnc(Nc4ccc(OCc5cccc(F)c5)c(Cl)c4)c3c2)o1 [lapatinib]
In short: as §1

[20] = compound: CS(=O)(=O)N1CCN(Cc2cc3nc(-c4cccc5[nH]ncc45)nc(N4CCOCC4)c3s2)CC1 [pictilisib]
In short: as §1

Measured: log2 fold change

MGME1 (UniProt Q9BQP7)
inactive: [1] 0.031 | [2] 0.014 | [3] -0.019 | [4] -0.027 | [5] -0.032 | [6] -0.014 | [7] -0.029 | [8] -0.017 | [9] -0.026 | [10] 0 | [11] 0.043 | [12] -0.043 | [13] -0.007 | [14] -0.056 | [15] 0.047 | [16] -0.073 | [17] 0.002 | [18] 0.081 | [19] 0.035 | [20] 0.014

MED28 (UniProt Q9H204)
inactive: [1] -0.066 | [2] 0.005 | [3] -0.111 | [4] 0.005 | [5] -0.045 | [7] 0.041 | [8] 0.022 | [9] -0.067 | [12] 0.074 | [13] 0.043 | [14] 0.06 | [15] -0.074 | [16] -0.076 | [17] -0.033 | [18] -0.012 | [19] 0.082 | [20] 0.058

MEF2C isoform 5 (UniProt Q06413)
inactive: [1] 0.268 | [2] 0.111 | [3] 0.072 | [4] -0.057 | [5] 0.041 | [6] -0.035 | [7] -0.084 | [8] -0.021 | [9] 0.031 | [10] 0.177 | [11] -0.089 | [12] 0.06 | [13] -0.143 | [14] 0.024 | [15] -0.065 | [16] -0.061 | [17] 0.035 | [18] -0.049 | [19] 0.086 | [20] 0.075

MFSD4B (UniProt Q5TF39)
inactive: [1] 0.109 | [2] -0.013 | [3] 0.037 | [4] 0.009 | [6] 0.12 | [7] -0.253 | [8] -0.135 | [9] 0.033 | [10] 0.028 | [11] 0.017 | [12] -0.054 | [13] -0.018 | [14] 0.02 | [15] -0.035 | [16] 0.056 | [17] 0.035 | [18] 0.079 | [19] -0.054 | [20] 0.135

MGAT4B isoform 3 (UniProt Q9UQ53)
inactive: [1] -0.051 | [2] 0.034 | [3] 0.066 | [4] -0.117 | [5] -0.017 | [6] -0.012 | [7] -0.04 | [8] 0.052 | [9] 0.039 | [10] -0.054 | [11] -0.134 | [12] 0.046 | [13] -0.012 | [14] 0.013 | [15] 0.055 | [16] 0.13 | [17] -0.023 | [18] 0.004 | [19] 0 | [20] -0.053

MECP2 isoform 2 (UniProt P51608)
inactive: [1] 0.026 | [2] 0.026 | [3] 0.286 | [4] 0.061 | [5] 0.123 | [6] 0.319 | [7] 0.182 | [8] 0.088 | [9] 0.118 | [10] -0.001 | [11] -0.1 | [12] 0.257 | [13] 0.027 | [14] 0.171 | [15] -0.134 | [16] -0.04 | [17] 0.057 | [18] -0.188 | [19] 0.092 | [20] -0.032

MCM3 isoform 2 (UniProt P25205)
inactive: [1] 0.022 | [2] -0.036 | [3] -0.068 | [4] -0.025 | [5] 0.009 | [6] -0.062 | [7] -0.023 | [8] -0.011 | [9] -0.006 | [10] -0.016 | [11] 0.002 | [12] -0.049 | [13] 0.023 | [14] -0.005 | [15] -0.078 | [16] -0.013 | [17] 0.011 | [18] -0.011 | [19] 0.003 | [20] 0.011

MCEE (UniProt Q96PE7)
inactive: [1] 0.103 | [2] 0.056 | [3] -0.001 | [4] 0.029 | [5] -0.008 | [6] -0.162 | [7] 0.02 | [8] 0.032 | [9] -0.049 | [10] 0.057 | [12] -0.035 | [13] -0.04 | [14] 0.068 | [15] -0.034 | [16] 0.012 | [17] 0.059 | [18] 0.079 | [19] -0.042 | [20] -0.108

MBOAT1 (UniProt Q6ZNC8)
inactive: [1] 0.076 | [2] 0.113 | [3] 0.019 | [4] -0.092 | [5] 0.022 | [6] -0.085 | [7] 0.026 | [8] 0.006 | [9] 0.068 | [10] -0.019 | [11] -0.121 | [12] -0.245 | [13] 0.015 | [14] -0.149 | [16] 0.033 | [17] 0.011 | [19] -0.008

METTL16 (UniProt Q86W50)
inactive: [1] 0.065 | [2] -0.052 | [3] -0.156 | [4] -0.005 | [5] 0.007 | [6] -0.154 | [7] 0.01 | [8] -0.086 | [9] 0.024 | [10] 0.008 | [11] 0.026 | [12] -0.063 | [13] 0.068 | [14] -0.074 | [15] -0.058 | [16] -0.079 | [17] -0.046 | [18] -0.006 | [19] 0.08 | [20] -0.051

MFSD10 (UniProt Q14728)
inactive: [1] 0.072 | [2] 0.002 | [3] 0.036 | [4] -0.053 | [5] 0.074 | [6] 0.005 | [7] -0.049 | [8] 0.027 | [9] 0.01 | [10] -0.082 | [11] -0.114 | [12] 0.042 | [13] -0.051 | [14] 0.057 | [15] 0.028 | [16] 0 | [17] 0.068 | [18] 0.029 | [19] 0.104 | [20] 0.162

MCRIP2 (UniProt Q9BUT9)
inactive: [1] 0.165 | [2] 0.106 | [3] 0.03 | [4] -0.016 | [5] -0.028 | [7] 0.093 | [8] -0.077 | [9] -0.063 | [11] -0.059 | [12] 0.101 | [13] 0.192 | [16] -0.004 | [19] -0.074 | [20] 0.08

MED13 (UniProt Q9UHV7)
inactive: [1] 0.13 | [2] -0.33 | [3] 0.057 | [4] 0.023 | [6] 0.285 | [7] 0.099 | [8] 0.094 | [9] 0.197 | [10] 0.022 | [11] 0.045 | [12] 0.072 | [13] 0.058 | [14] 0.007 | [15] -0.057 | [16] 0 | [17] -0.012 | [18] 0.04 | [19] 0.126 | [20] 0.177

MAT1A (UniProt Q00266)
inactive: [1] 0.088 | [2] 0.051 | [3] 0.083 | [4] -0.027 | [5] -0.035 | [6] -0.012 | [7] 0.01 | [8] -0.026 | [9] -0.028 | [10] 0.043 | [11] -0.026 | [12] -0.051 | [13] -0.048 | [14] 0.048 | [15] -0.182 | [16] 0.031 | [17] 0.043 | [18] 0.05 | [19] 0.009 | [20] -0.021

Reprinted from the results shown (2 entries):
MED13 (UniProt Q9UHV7)
inactive: [1] 0.13 | [2] -0.33 | [3] 0.057 | [4] 0.023 | [6] 0.285 | [7] 0.099 | [8] 0.094 | [9] 0.197 | [10] 0.022 | [11] 0.045 | [12] 0.072 | [13] 0.058 | [14] 0.007 | [15] -0.057 | [16] 0 | [17] -0.012 | [18] 0.04 | [19] 0.126 | [20] 0.177

MAT1A (UniProt Q00266)
inactive: [1] 0.088 | [2] 0.051 | [3] 0.083 | [4] -0.027 | [5] -0.035 | [6] -0.012 | [7] 0.01 | [8] -0.026 | [9] -0.028 | [10] 0.043 | [11] -0.026 | [12] -0.051 | [13] -0.048 | [14] 0.048 | [15] -0.182 | [16] 0.031 | [17] 0.043 | [18] 0.05 | [19] 0.009 | [20] -0.021

Additional records:

MBOAT2 (UniProt Q6ZWT7)
inactive: [1] 0.093 | [2] 0 | [3] -0.038 | [4] 0.002 | [5] 0.002 | [6] -0.035 | [7] -0.062 | [8] -0.033 | [9] 0.063 | [10] 0.015 | [11] -0.012 | [12] -0.032 | [13] -0.003 | [14] -0.077 | [15] -0.054 | [16] -0.004 | [17] 0 | [18] 0.064 | [19] 0.031 | [20] -0.018

MED10 (UniProt Q9BTT4)
inactive: [1] 0.005 | [2] 0.008 | [3] -0.091 | [4] 0.086 | [5] 0 | [6] 0.035 | [7] 0.088 | [8] 0.013 | [9] 0 | [10] -0.017 | [11] -0.13 | [12] 0.087 | [13] 0.12 | [14] -0.076 | [15] 0.016 | [16] -0.175 | [17] -0.089 | [18] -0.05 | [19] 0.07 | [20] -0.089

MCM4 (UniProt P33991)
inactive: [1] 0.006 | [2] -0.039 | [3] -0.153 | [4] 0.006 | [5] 0 | [6] -0.093 | [7] -0.038 | [8] -0.026 | [9] -0.001 | [10] -0.014 | [11] 0.022 | [12] -0.091 | [13] 0.016 | [14] -0.048 | [15] -0.032 | [16] 0.017 | [17] 0.013 | [18] 0.021 | [19] 0.02 | [20] -0.016
